Laboratory results from article PMC8799692.

Amino acid sequences for entries named in this document (tags omitted).
UniProt P09405: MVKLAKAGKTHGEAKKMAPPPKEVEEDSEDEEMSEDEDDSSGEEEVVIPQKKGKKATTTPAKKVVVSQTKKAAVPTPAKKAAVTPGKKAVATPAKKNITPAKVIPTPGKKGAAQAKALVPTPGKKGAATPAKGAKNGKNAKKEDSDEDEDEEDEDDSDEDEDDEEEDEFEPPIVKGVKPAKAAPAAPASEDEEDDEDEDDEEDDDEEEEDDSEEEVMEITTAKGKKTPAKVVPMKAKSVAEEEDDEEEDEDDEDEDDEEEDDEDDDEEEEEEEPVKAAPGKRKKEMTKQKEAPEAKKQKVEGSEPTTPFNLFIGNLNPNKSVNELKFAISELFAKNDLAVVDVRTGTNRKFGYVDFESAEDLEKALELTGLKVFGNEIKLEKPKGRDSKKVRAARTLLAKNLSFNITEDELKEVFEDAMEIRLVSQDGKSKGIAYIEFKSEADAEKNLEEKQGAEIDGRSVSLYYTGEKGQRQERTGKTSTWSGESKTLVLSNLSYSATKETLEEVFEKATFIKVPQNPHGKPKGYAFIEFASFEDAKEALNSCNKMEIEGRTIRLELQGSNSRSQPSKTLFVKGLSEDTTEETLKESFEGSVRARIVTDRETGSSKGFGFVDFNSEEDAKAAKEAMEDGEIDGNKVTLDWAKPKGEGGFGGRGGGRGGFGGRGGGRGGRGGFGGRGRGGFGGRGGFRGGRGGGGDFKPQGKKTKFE

Each substance was assayed against T1, ARAF (mouse (endogenous in NRAS-mutated murine melanoma cells)) (UniProt P04627) (assay: affinity purification with mass spectrometry; endogenous ARAF immunoprecipitated (ARAF antibody, protein-A magnetic beads, 4 °C, 4 hours) from 1 mg NP40-buffer lysate of ARAF-only cells against control cells with shRNA against ARAF; label-free quantification).
T1 sequence: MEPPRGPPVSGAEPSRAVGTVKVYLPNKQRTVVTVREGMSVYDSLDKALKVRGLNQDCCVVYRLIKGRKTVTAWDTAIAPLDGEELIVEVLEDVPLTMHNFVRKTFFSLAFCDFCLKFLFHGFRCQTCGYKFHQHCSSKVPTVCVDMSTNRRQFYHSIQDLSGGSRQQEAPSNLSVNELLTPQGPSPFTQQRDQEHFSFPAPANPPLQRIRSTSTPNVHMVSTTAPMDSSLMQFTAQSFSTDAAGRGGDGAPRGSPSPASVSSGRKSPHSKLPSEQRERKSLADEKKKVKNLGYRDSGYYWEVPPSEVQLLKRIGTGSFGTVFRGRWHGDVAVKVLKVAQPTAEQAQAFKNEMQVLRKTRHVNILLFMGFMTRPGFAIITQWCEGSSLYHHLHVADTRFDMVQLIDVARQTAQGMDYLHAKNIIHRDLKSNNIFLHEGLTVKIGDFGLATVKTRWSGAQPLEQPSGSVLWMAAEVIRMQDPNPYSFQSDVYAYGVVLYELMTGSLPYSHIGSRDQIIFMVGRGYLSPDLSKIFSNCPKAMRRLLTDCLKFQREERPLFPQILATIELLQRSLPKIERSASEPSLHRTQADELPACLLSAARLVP

binding, binds:
NCL (from UniProt P09405 1-707)
Microphtalmia-associated transcription factor (MITF) (from UniProt Q08874-8)
PARP

No constants are given. Whether binding was seen depends on the method and setting. Binding seen in cells or lysates may run through a third protein. A yes stands for co-enrichment or nearness to the bait. Other partners may have been found.
